According to the supplement of paper PMC3334620:
Over roughly 33,000 sequences, “E-score (-0.5 to 0.5)” has its median near -0.016; the highest 2% begin near 0.3. Some of the results follow.

The sequences below were run against T1, Yer184c (UniProt P39961) (assay: PBM E-score (8-mer binding enrichment) (E-score (-0.5 to 0.5)); higher = stronger / more preferred TF binding). Details: protein concentration: 100 nM; construct: GST-full length.
T1 sequence: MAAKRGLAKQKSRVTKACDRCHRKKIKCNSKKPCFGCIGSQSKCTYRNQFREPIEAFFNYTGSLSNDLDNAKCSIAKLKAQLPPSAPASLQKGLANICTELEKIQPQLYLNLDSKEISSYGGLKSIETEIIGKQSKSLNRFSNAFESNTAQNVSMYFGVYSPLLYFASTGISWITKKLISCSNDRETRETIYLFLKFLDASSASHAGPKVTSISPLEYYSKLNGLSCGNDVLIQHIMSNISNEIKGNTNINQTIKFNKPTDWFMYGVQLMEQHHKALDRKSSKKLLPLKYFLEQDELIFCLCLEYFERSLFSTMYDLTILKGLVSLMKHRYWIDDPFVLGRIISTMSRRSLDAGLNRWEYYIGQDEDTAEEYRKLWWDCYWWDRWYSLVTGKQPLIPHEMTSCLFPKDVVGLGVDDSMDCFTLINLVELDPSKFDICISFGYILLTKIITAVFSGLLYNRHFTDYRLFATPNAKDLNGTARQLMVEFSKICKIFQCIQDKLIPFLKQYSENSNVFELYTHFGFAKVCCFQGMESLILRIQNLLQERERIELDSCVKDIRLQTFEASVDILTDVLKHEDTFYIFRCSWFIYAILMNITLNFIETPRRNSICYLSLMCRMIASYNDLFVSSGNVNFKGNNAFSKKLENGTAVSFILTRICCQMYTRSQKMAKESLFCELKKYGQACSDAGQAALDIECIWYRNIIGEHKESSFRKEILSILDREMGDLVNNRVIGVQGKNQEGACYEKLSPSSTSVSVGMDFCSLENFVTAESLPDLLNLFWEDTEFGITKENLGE
How it was run: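 GST-tagged yeast TFs (full-length or DNA-binding domain) were made by PURExpress in vitro transcription/translation and applied at about 100-200 nM to universal all-10-mer Agilent arrays. The arrays were made double-stranded by primer extension, on fresh or once-stripped slides. Bound protein was detected with fluorescent anti-GST, and scans were normalised with masliner. Each ungapped eight-base word, pooled with its reverse complement, received an E-score (modified Wilcoxon-Mann-Whitney statistic) from the Universal PBM Analysis Suite.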

Sequence | PBM E-score
TATGGGGA | -0.00306
AAGGACGT | -0.0295
ACATGCCG | 0.214
TAGCGCTA | 0.0558
ATCGGTAC | 0.147
ATCATAGA | 0.0803
CGACTGCC | -0.139
ATTAAACG | 0.172
ACAGCTCG | 0.00408
GACCTTCA | -0.119
CTAGTAAA | 0.237
ACAGGCGA | -0.105
GATGTATA | -0.0153
ACTACTCC | 0.1
TCCTGGAA | -0.204
CCCACACC | -0.11
GGTGTTCA | 0.0476
AGCAGCAT | -0.206
CGAGCTGA | 0.114
AGGTGACC | -0.147
CTGACGGA | 0.0435
ACACCAAG | -0.0733
AATCGAGC | -0.0342
CCGCGTAC | 0.0694
AACTTCTG | 0.0903

Sequence | PBM E-score
ACCGACGC | 0.0188
CCAAGGGA | -0.237
CACGGCGA | 0.0466
CCTTCACA | -0.0444
ACAGGACA | 0.122
CGCACTGA | -0.0244
ACCCGCCG | 0.302
GCTAAGGA | -0.154
AGTATCGA | 0.156
ACACCCAA | 0.00915
GGACACTA | 0.0451
AGGCATTG | -0.157
CGACAGCG | -0.0214
TACGAATA | 0.118
GTACCTAC | -0.212
ACCTGTTA | -0.229
CTCACCGA | 0.168
ACTTTTGC | 0.0377
CTAGCGTA | -0.113
AGACTAGC | -0.293
AAGTTGCT | -0.0222
CTACACAA | 0.149
GGCACCCA | -0.108
ATAGCCGG | 0.388
CCTCCATA | -0.0805

Sequence | PBM E-score
CGCTCCCA | -0.144
CCTAACTA | 0.238
CGAGTTAG | 0.0651
GACAGGGA | -0.135
AAAGCGTT | -0.0919
CCCGTAGG | -0.109
GAAAGCAC | -0.0607
ATGAATCG | -0.0062
GCAGTGGA | 0.0183
ACACTTAG | -0.0176
AGCGGGAC | -0.163
GATTACGA | 0.142
GACTGCCC | -0.309
GATGGAGC | -0.101
AAGGCTAA | -0.0364
CCCAGATC | -0.202
GTTTGTAA | 0.107
ACATTCTG | -0.144
CAAGAGTC | -0.0892
GCATAACC | -0.0619
ATACCCGG | 0.179
ATGGAAAC | 0.0248
CAGACAAA | 0.157
CACTGGGG | -0.224
GCGTCGTA | 0.143

Sequence | PBM E-score
CCTGCAGA | -0.112
AACCGCCC | -0.0177
CACAATGC | -0.184
CACGGCTA | 0.22
TCGGACCA | 0.238
CTATGACC | -0.123
GCGAGATA | 0.0462
AACTATCG | -0.0984
ACTAGCTA | -0.0382
AGGGCTAA | 0.0382
ACGAGAGC | -0.141
AGTTACTA | 0.111
CGATCAAG | 0.00801
GACTAGGA | -0.0921
GAGCAACA | 0.128
CTGGCCTA | -0.221
AGTTCTTC | 0.136
ACTACACG | -0.0557
ATCTTTTG | 0.116
CGCTTCAA | 0.0363
GCGCTTTA | 0.0325
CCTTTCGA | 0.0208
AAGTTGCC | 0.118
ATGGCCCG | -0.0155
AAGGCTCA | -0.0868

Sequence | PBM E-score
ACATCATG | -0.0883
TACTCTAA | -0.0158
AGGGGTCA | -0.104
CATTCGTA | -0.00254
GCTGACAC | 0.0291
AGCGGGGG | -0.406
CAGGCGAA | -0.0442
AATAGTAA | 0.127
CGGCGAGC | 0.104
GCGATAAA | -0.116
ACTGGGAG | -0.196
CGAAGACA | 0.0303
AGGCACTG | 0.0213
CCTGCAAG | -0.215
AGAGCCCT | -0.162
TGACGGAA | 0.17
AACGCGCT | 0.148
CCACTGGC | -0.0959
GCAAATTA | 0.00984
ACAACACG | 0.0383
TTAGGCAA | -0.168
CCATACGG | 0.0198
AATTACAA | 0.0221
AGATTTAT | 0.293
GGGGACGA | -0.175

For reference, some entries already given:
Sequence | PBM E-score
CGATCAAG | 0.00801
GACTAGGA | -0.0921
GAGCAACA | 0.128
CTGGCCTA | -0.221
AGTTCTTC | 0.136
ACTACACG | -0.0557
ATCTTTTG | 0.116
CGCTTCAA | 0.0363
GCGCTTTA | 0.0325
CCTTTCGA | 0.0208
AAGTTGCC | 0.118
ATGGCCCG | -0.0155
AAGGCTCA | -0.0868
ACATCATG | -0.0883
TACTCTAA | -0.0158
AGGGGTCA | -0.104
CATTCGTA | -0.00254
GCTGACAC | 0.0291
AGCGGGGG | -0.406
CAGGCGAA | -0.0442
AATAGTAA | 0.127
CGGCGAGC | 0.104
GCGATAAA | -0.116
ACTGGGAG | -0.196
CGAAGACA | 0.0303
AGGCACTG | 0.0213
CCTGCAAG | -0.215
AGAGCCCT | -0.162
TGACGGAA | 0.17
AACGCGCT | 0.148
CCACTGGC | -0.0959
GCAAATTA | 0.00984
ACAACACG | 0.0383
TTAGGCAA | -0.168
CCATACGG | 0.0198
AATTACAA | 0.0221
AGATTTAT | 0.293

(listing goes on)

Sequence | PBM E-score
AACATAAA | 0.0663
GGGATGCA | -0.219
ACAATCTA | 0.0224
CATCTGGG | -0.127
GCTTAGCC | -0.0268
CGCACACC | -0.0404
ACGGCTTA | 0.193
AGACACGA | 0.0162
ATCTACCG | 0.205
AACTAGAG | -0.0689
TGACTGAA | -0.14
ACTAGAGG | -0.258
GGGAGCGA | -0.284
GATCTAAA | 0.141
ATCACTCA | 0.087
CCGAGTGA | 0.209
GATACTCA | 0.0312
GACTCGCC | -0.225
AGCGCCGC | 0.0842
CACCCGAA | 0.209
AATGCCGA | 0.378
GTCGTCGA | -0.251
GGCGAAAA | 0.237
AGCAGAGA | -0.0449
ACGAAATG | -0.063

Sequence | PBM E-score
GCATTTAA | 0.178
CCATCGCG | 0.189
GAAGTCCA | -0.0666
AGAAGGCA | -0.199
CCGAGCAC | 0.203
GCCCAGGA | -0.0122
TAACTATA | -0.0159
GCGGCAGC | -0.119
GACTAGCA | -0.185
AATCGAAT | 0.122
ACGCTGTA | 0.00315
CTTTAGAA | 0.233
ACGTAGGA | -0.0346
CTGCCGCA | -0.117
CTATAATC | 0.0504
AAACTTCT | 0.196
GGCAAGCC | -0.137
AATTTGTG | 0.139
AAGGACAA | 0.0335
CCGGCTAA | 0.3
CTGGGACA | -0.234
AACGCACT | 0.0723
